# From the supplement of paper PMC8728848
# This is one part of the list.
# B1: SspB A3vp1 (Streptococcus gordonii), Q54186 (protein)
# chain: MTNEADYQAKLAAYQTELARVQKANADAKATYEKAVEDNKAKNAAIKAENEEIKQRNAVAKTDYEAKLAKYEADLAKYKKEFAAYTAALAEAESKKKQDGYLSEPRSQSLNFKSEPNAIRTIDSSVHQYGQQELDALVKSWGISPTNPDRKKSRAYSYFNAINSNNTYAKLVLEKDKPVDVTYTGLKNSSFNGKKISKVVYTYTLKETGFNDGTKMTMFASSDPTVTAWYNDYFTSTNINVKVKFYDEEGQLMNLTGGLVNFSSLNRGNGSGAIDKDAIESVRNFNGRYIPISGSSIKIHENNSAYADSSNAEKSLGARWNTSEWDTTSSPNNWYGAIVGEITQSEISFNMASSKSGNIWFAFNSNINAIGVPTKPVAPTAPTQPMYETEKPLEPAPVAPSYENEPTPPVKTPDQPEPSKPAAALEHHHHHH
# Key:
# Test in all cases: glycan array binding signal (z-score within array); higher = stronger binding
# Conditions in all cases: glycan notation: IUPAC condensed, linker removed
# [1] = biological target: Gal(b1-4)GlcNAc(b1-6)GalNAc
# Summary of the method: (§1)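 Columns mapping to the same glycan were averaged after glycan names were converted to IUPAC-condensed notation. The data come from 3228 arrays in the Consortium for Functional Glycomics database, limited to those with an available protein sequence. Binding is reported as a within-array Z-score averaged across arrays of one protein sequence and across linkers.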
# [2] = biological target: Gal(b1-4)GlcNAc(b1-6)[Gal(b1-3)]GalNAc
# Summary of the method: as §1
# [3] = biological target: Gal(b1-4)GlcNAc(b1-6)[Gal(b1-4)GlcNAc(b1-3)]GalNAc
# Summary of the method: as §1
# Gal(b1-4)GlcNAc6P = biological target: Gal(b1-4)GlcNAc6P
# Summary of the method: as §1
# Gal(b1-6)Gal = biological target: Gal(b1-6)Gal
# Summary of the method: as §1
# Gal3S(b1-3)GalNAc = biological target: Gal3S(b1-3)GalNAc
# Summary of the method: as §1
# Gal3S(b1-3)GlcNAc = biological target: Gal3S(b1-3)GlcNAc
# Summary of the method: as §1
# [4] = biological target: Gal3S(b1-3)[Fuc(a1-4)]GlcNAc
# Summary of the method: as §1
# Gal3S(b1-4)Glc = biological target: Gal3S(b1-4)Glc
# Summary of the method: as §1
# Gal3S(b1-4)Glc6S = biological target: Gal3S(b1-4)Glc6S
# Summary of the method: as §1
# Gal3S(b1-4)GlcNAc = biological target: Gal3S(b1-4)GlcNAc
# Summary of the method: as §1
# [5] = biological target: Gal3S(b1-4)[Fuc(a1-3)]Glc6S
# Summary of the method: as §1
# [6] = biological target: Gal3S(b1-4)[Fuc(a1-3)]GlcNAc
# Summary of the method: as §1
# [7] = biological target: Gal3S(b1-4)[Fuc(a1-3)]GlcNAc6S
# Summary of the method: as §1
# Gal3S4S(b1-4)GlcNAc = biological target: Gal3S4S(b1-4)GlcNAc
# Summary of the method: as §1
# Gal3S6S(b1-4)GlcNAc = biological target: Gal3S6S(b1-4)GlcNAc
# Summary of the method: as §1
# Gal3S6S(b1-4)GlcNAc6S = biological target: Gal3S6S(b1-4)GlcNAc6S
# Summary of the method: as §1
# Gal4S(b1-4)GlcNAc = biological target: Gal4S(b1-4)GlcNAc
# Summary of the method: as §1
# Gal4S6S(b1-4)GlcNAc = biological target: Gal4S6S(b1-4)GlcNAc
# Summary of the method: as §1
# Gal6P(b1-4)GlcNAc = biological target: Gal6P(b1-4)GlcNAc
# Summary of the method: as §1
# Gal6S(b1-3)GlcNAc = biological target: Gal6S(b1-3)GlcNAc
# Summary of the method: as §1
# Gal6S(b1-3)GlcNAc6S = biological target: Gal6S(b1-3)GlcNAc6S
# Summary of the method: as §1
# Gal6S(b1-4)Glc = biological target: Gal6S(b1-4)Glc
# Summary of the method: as §1
# Gal6S(b1-4)Glc6S = biological target: Gal6S(b1-4)Glc6S
# Summary of the method: as §1
# Gal6S(b1-4)GlcNAc = biological target: Gal6S(b1-4)GlcNAc
# Summary of the method: as §1
# Gal6S(b1-4)GlcNAc6S = biological target: Gal6S(b1-4)GlcNAc6S
# Summary of the method: as §1
# GalNAc(a1-3)Gal = biological target: GalNAc(a1-3)Gal
# Summary of the method: as §1
# GalNAc(a1-3)GalNAc = biological target: GalNAc(a1-3)GalNAc
# Summary of the method: as §1
# [8] = biological target: GalNAc(a1-3)GalNAc(a1-3)Gal(a1-4)Gal(b1-4)GlcNAc
# Summary of the method: as §1
# [9] = biological target: GalNAc(a1-3)GalNAc(b1-3)Gal(a1-4)Gal(b1-4)Glc
# Summary of the method: as §1
# GalNAc(b1-3)Gal = biological target: GalNAc(b1-3)Gal
# Summary of the method: as §1
# [10] = biological target: GalNAc(b1-3)Gal(a1-4)Gal(b1-4)GlcNAc
# Summary of the method: as §1
# [11] = biological target: GalNAc(b1-3)Gal(a1-4)Gal(b1-4)GlcNAc(b1-3)Gal(b1-4)Glc
# Summary of the method: as §1
# [12] = biological target: GalNAc(b1-3)Gal(a1-6)Gal(b1-4)Glc
# Summary of the method: as §1
# GalNAc(b1-3)GalNAc = biological target: GalNAc(b1-3)GalNAc
# Summary of the method: as §1
# GalNAc(b1-3)GlcNAc = biological target: GalNAc(b1-3)GlcNAc
# Summary of the method: as §1
# GalNAc(b1-4)Gal(b1-4)Glc = biological target: GalNAc(b1-4)Gal(b1-4)Glc
# Summary of the method: as §1
# GalNAc(b1-4)GlcNAc = biological target: GalNAc(b1-4)GlcNAc
# Summary of the method: as §1
binder,measurement,setting,value
B1,glycan array binding signal (z-score),[1],-0.083
same,glycan array binding signal (z-score),[2],0.609
same,glycan array binding signal (z-score),[3],0.076
same,glycan array binding signal (z-score),Gal(b1-4)GlcNAc6P,0.545
same,glycan array binding signal (z-score),Gal(b1-6)Gal,0.959
same,glycan array binding signal (z-score),Gal3S(b1-3)GalNAc,0.06
same,glycan array binding signal (z-score),Gal3S(b1-3)GlcNAc,-0.649
same,glycan array binding signal (z-score),[4],0.041
same,glycan array binding signal (z-score),Gal3S(b1-4)Glc,0.262
same,glycan array binding signal (z-score),Gal3S(b1-4)Glc6S,-0.174
same,glycan array binding signal (z-score),Gal3S(b1-4)GlcNAc,-0.535
same,glycan array binding signal (z-score),[5],2.5
same,glycan array binding signal (z-score),[6],-0.171
same,glycan array binding signal (z-score),[7],-0.117
same,glycan array binding signal (z-score),Gal3S4S(b1-4)GlcNAc,-0.13
same,glycan array binding signal (z-score),Gal3S6S(b1-4)GlcNAc,-0.52
same,glycan array binding signal (z-score),Gal3S6S(b1-4)GlcNAc6S,-0.625
same,glycan array binding signal (z-score),Gal4S(b1-4)GlcNAc,0.061
same,glycan array binding signal (z-score),Gal4S6S(b1-4)GlcNAc,-1.45
same,glycan array binding signal (z-score),Gal6P(b1-4)GlcNAc,-0.815
same,glycan array binding signal (z-score),Gal6S(b1-3)GlcNAc,-0.505
same,glycan array binding signal (z-score),Gal6S(b1-3)GlcNAc6S,-0.645
same,glycan array binding signal (z-score),Gal6S(b1-4)Glc,-0.142
same,glycan array binding signal (z-score),Gal6S(b1-4)Glc6S,-0.029
same,glycan array binding signal (z-score),Gal6S(b1-4)GlcNAc,-0.624
same,glycan array binding signal (z-score),Gal6S(b1-4)GlcNAc6S,-0.199
same,glycan array binding signal (z-score),GalNAc(a1-3)Gal,-0.288
same,glycan array binding signal (z-score),GalNAc(a1-3)GalNAc,-1.09
same,glycan array binding signal (z-score),[8],-1.07
same,glycan array binding signal (z-score),[9],-0.593
same,glycan array binding signal (z-score),GalNAc(b1-3)Gal,0.001
same,glycan array binding signal (z-score),[10],1.54
same,glycan array binding signal (z-score),[11],-0.702
same,glycan array binding signal (z-score),[12],0.652
same,glycan array binding signal (z-score),GalNAc(b1-3)GalNAc,-0.708
same,glycan array binding signal (z-score),GalNAc(b1-3)GlcNAc,-0.204
same,glycan array binding signal (z-score),GalNAc(b1-4)Gal(b1-4)Glc,0.071
same,glycan array binding signal (z-score),GalNAc(b1-4)GlcNAc,-0.021

# Reprinted at random: three entries already listed.
binder,measurement,setting,value
B1,glycan array binding signal (z-score),[12],0.652
same,glycan array binding signal (z-score),Gal3S(b1-3)GalNAc,0.06
same,glycan array binding signal (z-score),Gal3S(b1-4)Glc,0.262
